Measured values taken from the supplement of paper PMC11438910.
The list shows a part of the results. Only a few entries rise above the background.

Tests used:
Experiment in all cases: fluorescence intensity of antibody binding to polysaccharide-coupled beads; higher = stronger binding
[1] = molecular target: pneumococcal polysaccharide Pn41A
[2] = molecular target: pneumococcal polysaccharide Pn41F
[3] = molecular target: pneumococcal polysaccharide Pn42
[4] = molecular target: pneumococcal polysaccharide Pn43
[5] = molecular target: pneumococcal polysaccharide Pn44
[6] = molecular target: pneumococcal polysaccharide Pn45
[7] = molecular target: pneumococcal polysaccharide Pn46
[8] = molecular target: pneumococcal polysaccharide Pn47A
[9] = molecular target: pneumococcal polysaccharide Pn47F
[10] = molecular target: pneumococcal polysaccharide Pn48
[11] = molecular target: pneumococcal polysaccharide Pn5
[12] = molecular target: pneumococcal polysaccharide Pn6A
[13] = molecular target: pneumococcal polysaccharide Pn6B
[14] = molecular target: pneumococcal polysaccharide Pn6C
[15] = molecular target: pneumococcal polysaccharide Pn6D
[16] = molecular target: pneumococcal polysaccharide Pn7A
[17] = molecular target: pneumococcal polysaccharide Pn7B
[18] = molecular target: pneumococcal polysaccharide Pn7C
[19] = molecular target: pneumococcal polysaccharide Pn7F
[20] = molecular target: pneumococcal polysaccharide Pn8
[21] = molecular target: pneumococcal polysaccharide Pn9A
[22] = molecular target: pneumococcal polysaccharide Pn9L
[23] = molecular target: pneumococcal polysaccharide Pn9N
[24] = antibody concentration 2.8593 ng/mL
[25] = antibody concentration 15.2894 ng/mL
[26] = antibody concentration 81.7561 ng/mL
[27] = antibody concentration 437.17 ng/mL
[28] = antibody concentration 2337.65 ng/mL
[29] = antibody concentration 12500 ng/mL
[30] = antibody concentration 0.1 ng/mL
[31] = antibody concentration 0.534724 ng/mL

B1: 4-80.2 (protein)
chain 1: QVQLQESGPGLVKPSETLSLTCAVSGDSFSSYWWSWIRQPPGKGLEWIGEINGNVGSTNYNPSLKSRVTISKDASKNQFSLKLSSVTAADTAVYYCARYKEYWGQGVLVTVSS
chain 2: DVVMTQSPLSLPITPGQPASISCRSSQSLVHSNGNTYLSWYQQKPGQPPRRLIYEVSNRDSGVPDRFSGSGAGTDFTLKISRVEAEDVGVYYCGQGTHLPYSFGQGTKVEIK
- fluorescence intensity [1, 24]: 23 MFI
- fluorescence intensity [1, 25]: 23.5 MFI
- fluorescence intensity [1, 26]: 24.2 MFI
- fluorescence intensity [1, 27]: 23.5 MFI
- fluorescence intensity [1, 28]: 24.5 MFI
- fluorescence intensity [1, 29]: 28.2 MFI
- fluorescence intensity [2, 30]: 13.5 MFI
- fluorescence intensity [2, 31]: 13 MFI
- fluorescence intensity [2, 24]: 12.5 MFI
- fluorescence intensity [2, 25]: 14 MFI
- fluorescence intensity [2, 26]: 12.5 MFI
- fluorescence intensity [2, 27]: 13.5 MFI
- fluorescence intensity [2, 28]: 14.5 MFI
- fluorescence intensity [2, 29]: 17.5 MFI
- fluorescence intensity [3, 30]: 13 MFI
- fluorescence intensity [3, 31]: 12.5 MFI
- fluorescence intensity [3, 24]: 12 MFI
- fluorescence intensity [3, 25]: 11 MFI
- fluorescence intensity [3, 26]: 11.8 MFI
- fluorescence intensity [3, 27]: 12 MFI
- fluorescence intensity [3, 28]: 14.5 MFI
- fluorescence intensity [3, 29]: 19 MFI
- fluorescence intensity [4, 30]: 16.8 MFI
- fluorescence intensity [4, 31]: 16.5 MFI
- fluorescence intensity [4, 24]: 17.2 MFI
- fluorescence intensity [4, 25]: 16.8 MFI
- fluorescence intensity [4, 26]: 16.2 MFI
- fluorescence intensity [4, 27]: 17 MFI
- fluorescence intensity [4, 28]: 20 MFI
- fluorescence intensity [4, 29]: 45 MFI
- fluorescence intensity [5, 30]: 25.8 MFI
- fluorescence intensity [5, 31]: 25.5 MFI
- fluorescence intensity [5, 24]: 26 MFI
- fluorescence intensity [5, 25]: 24.8 MFI
- fluorescence intensity [5, 26]: 24.5 MFI
- fluorescence intensity [5, 27]: 26 MFI
- fluorescence intensity [5, 28]: 25 MFI
- fluorescence intensity [5, 29]: 15.5 MFI
- fluorescence intensity [6, 30]: 11.5 MFI
- fluorescence intensity [6, 31]: 10.5 MFI
- fluorescence intensity [6, 24]: 11 MFI
- fluorescence intensity [6, 25]: 10 MFI
- fluorescence intensity [6, 26]: 11 MFI
- fluorescence intensity [6, 27]: 10.5 MFI
- fluorescence intensity [6, 28]: 11 MFI
- fluorescence intensity [6, 29]: 14 MFI
- fluorescence intensity [7, 30]: 24.5 MFI
- fluorescence intensity [7, 31]: 23.5 MFI
- fluorescence intensity [7, 24]: 25 MFI
- fluorescence intensity [7, 25]: 23.8 MFI
- fluorescence intensity [7, 26]: 22.5 MFI
- fluorescence intensity [7, 27]: 24 MFI
- fluorescence intensity [7, 28]: 25.5 MFI
- fluorescence intensity [7, 29]: 37 MFI
- fluorescence intensity [8, 30]: 16 MFI
- fluorescence intensity [8, 31]: 16.5 MFI
- fluorescence intensity [8, 24]: 16.5 MFI
- fluorescence intensity [8, 25]: 16 MFI
- fluorescence intensity [8, 26]: 16 MFI
- fluorescence intensity [8, 27]: 17 MFI
- fluorescence intensity [8, 28]: 17.5 MFI
- fluorescence intensity [8, 29]: 21 MFI
- fluorescence intensity [9, 30]: 12.5 MFI
- fluorescence intensity [9, 31]: 12 MFI
- fluorescence intensity [9, 24]: 12.5 MFI
- fluorescence intensity [9, 25]: 12 MFI
- fluorescence intensity [9, 26]: 12.5 MFI
- fluorescence intensity [9, 27]: 12.2 MFI
- fluorescence intensity [9, 28]: 13 MFI
- fluorescence intensity [9, 29]: 23 MFI
- fluorescence intensity [10, 30]: 22.5 MFI
- fluorescence intensity [10, 31]: 22 MFI
- fluorescence intensity [10, 24]: 21.5 MFI
- fluorescence intensity [10, 25]: 21.8 MFI
- fluorescence intensity [10, 26]: 21.8 MFI
- fluorescence intensity [10, 27]: 21 MFI
- fluorescence intensity [10, 28]: 24.5 MFI
- fluorescence intensity [10, 29]: 32 MFI
- fluorescence intensity [11, 30]: 10 MFI
- fluorescence intensity [11, 31]: 9 MFI
- fluorescence intensity [11, 24]: 10 MFI
- fluorescence intensity [11, 25]: 9 MFI
- fluorescence intensity [11, 26]: 9.5 MFI
- fluorescence intensity [11, 27]: 9.5 MFI
- fluorescence intensity [11, 28]: 10.5 MFI
- fluorescence intensity [11, 29]: 22 MFI
- fluorescence intensity [12, 30]: 23.5 MFI
- fluorescence intensity [12, 31]: 21.8 MFI
- fluorescence intensity [12, 24]: 21.5 MFI
- fluorescence intensity [12, 25]: 20.5 MFI
- fluorescence intensity [12, 26]: 21.8 MFI
- fluorescence intensity [12, 27]: 22 MFI
- fluorescence intensity [12, 28]: 25 MFI
- fluorescence intensity [12, 29]: 27.5 MFI
- fluorescence intensity [13, 30]: 19.5 MFI
- fluorescence intensity [13, 31]: 20 MFI
- fluorescence intensity [13, 24]: 19 MFI
- fluorescence intensity [13, 25]: 20.8 MFI
- fluorescence intensity [13, 26]: 19.8 MFI
- fluorescence intensity [13, 27]: 21 MFI
- fluorescence intensity [13, 28]: 21 MFI
- fluorescence intensity [13, 29]: 29 MFI
- fluorescence intensity [14, 30]: 15.8 MFI
- fluorescence intensity [14, 31]: 15.5 MFI
- fluorescence intensity [14, 24]: 20.2 MFI
- fluorescence intensity [14, 25]: 17.5 MFI
- fluorescence intensity [14, 26]: 14.8 MFI
- fluorescence intensity [14, 27]: 20.5 MFI
- fluorescence intensity [14, 28]: 24.5 MFI
- fluorescence intensity [14, 29]: 27.5 MFI
- fluorescence intensity [15, 30]: 19 MFI
- fluorescence intensity [15, 31]: 18 MFI
- fluorescence intensity [15, 24]: 17.5 MFI
- fluorescence intensity [15, 25]: 19.8 MFI
- fluorescence intensity [15, 26]: 17.2 MFI
- fluorescence intensity [15, 27]: 18 MFI
- fluorescence intensity [15, 28]: 20.5 MFI
- fluorescence intensity [15, 29]: 21.8 MFI
- fluorescence intensity [16, 30]: 23 MFI
- fluorescence intensity [16, 31]: 20.5 MFI
- fluorescence intensity [16, 24]: 20 MFI
- fluorescence intensity [16, 25]: 20 MFI
- fluorescence intensity [16, 26]: 21 MFI
- fluorescence intensity [16, 27]: 21.5 MFI
- fluorescence intensity [16, 28]: 27.5 MFI
- fluorescence intensity [16, 29]: 77.5 MFI
- fluorescence intensity [17, 30]: 17.2 MFI
- fluorescence intensity [17, 31]: 17.5 MFI
- fluorescence intensity [17, 24]: 15.5 MFI
- fluorescence intensity [17, 25]: 17.5 MFI
- fluorescence intensity [17, 26]: 15 MFI
- fluorescence intensity [17, 27]: 18 MFI
- fluorescence intensity [17, 28]: 19.2 MFI
- fluorescence intensity [17, 29]: 30.5 MFI
- fluorescence intensity [18, 30]: 18.2 MFI
- fluorescence intensity [18, 31]: 15.5 MFI
- fluorescence intensity [18, 24]: 20 MFI
- fluorescence intensity [18, 25]: 15.5 MFI
- fluorescence intensity [18, 26]: 17.5 MFI
- fluorescence intensity [18, 27]: 17 MFI
- fluorescence intensity [18, 28]: 17 MFI
- fluorescence intensity [18, 29]: 27.8 MFI
- fluorescence intensity [19, 30]: 16 MFI
- fluorescence intensity [19, 31]: 16.5 MFI
- fluorescence intensity [19, 24]: 15.5 MFI
- fluorescence intensity [19, 25]: 15.5 MFI
- fluorescence intensity [19, 26]: 16.5 MFI
- fluorescence intensity [19, 27]: 15.5 MFI
- fluorescence intensity [19, 28]: 20.2 MFI
- fluorescence intensity [19, 29]: 42.5 MFI
- fluorescence intensity [20, 30]: 23.5 MFI
- fluorescence intensity [20, 31]: 22.5 MFI
- fluorescence intensity [20, 24]: 21.5 MFI
- fluorescence intensity [20, 25]: 22 MFI
- fluorescence intensity [20, 26]: 22.5 MFI
- fluorescence intensity [20, 27]: 22.5 MFI
- fluorescence intensity [20, 28]: 25 MFI
- fluorescence intensity [20, 29]: 37 MFI
- fluorescence intensity [21, 30]: 20.8 MFI
- fluorescence intensity [21, 31]: 19.5 MFI
- fluorescence intensity [21, 24]: 19.5 MFI
- fluorescence intensity [21, 25]: 19.5 MFI
- fluorescence intensity [21, 26]: 18.5 MFI
- fluorescence intensity [21, 27]: 17.5 MFI
- fluorescence intensity [21, 28]: 22 MFI
- fluorescence intensity [21, 29]: 32 MFI
- fluorescence intensity [22, 30]: 18.2 MFI
- fluorescence intensity [22, 31]: 17.2 MFI
- fluorescence intensity [22, 24]: 16 MFI
- fluorescence intensity [22, 25]: 17 MFI
- fluorescence intensity [22, 26]: 18.5 MFI
- fluorescence intensity [22, 27]: 20 MFI
- fluorescence intensity [22, 28]: 18.5 MFI
- fluorescence intensity [22, 29]: 28.2 MFI
- fluorescence intensity [23, 30]: 18.2 MFI
- fluorescence intensity [23, 31]: 16.5 MFI
- fluorescence intensity [23, 24]: 16.5 MFI
- fluorescence intensity [23, 25]: 17 MFI
- fluorescence intensity [23, 26]: 17 MFI
- fluorescence intensity [23, 27]: 17.5 MFI
